According to the supplement of paper PMC7666118:
This is one part of the list.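 The calls were made as follows: active = dose-dependent thermal stabilisation significant by F-test of dose-response against flat model at 10% FDR; inactive = not significant.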

Sequences of proteins named here, by UniProt entry; tags and fusion partners are left off. A change or cut given only in a name is not applied to a line headed by its entry.
UniProt P53567: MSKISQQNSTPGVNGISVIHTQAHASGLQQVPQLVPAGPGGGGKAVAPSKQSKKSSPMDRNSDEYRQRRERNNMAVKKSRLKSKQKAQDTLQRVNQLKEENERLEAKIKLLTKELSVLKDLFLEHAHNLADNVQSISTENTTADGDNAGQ
UniProt Q13111, whole entry: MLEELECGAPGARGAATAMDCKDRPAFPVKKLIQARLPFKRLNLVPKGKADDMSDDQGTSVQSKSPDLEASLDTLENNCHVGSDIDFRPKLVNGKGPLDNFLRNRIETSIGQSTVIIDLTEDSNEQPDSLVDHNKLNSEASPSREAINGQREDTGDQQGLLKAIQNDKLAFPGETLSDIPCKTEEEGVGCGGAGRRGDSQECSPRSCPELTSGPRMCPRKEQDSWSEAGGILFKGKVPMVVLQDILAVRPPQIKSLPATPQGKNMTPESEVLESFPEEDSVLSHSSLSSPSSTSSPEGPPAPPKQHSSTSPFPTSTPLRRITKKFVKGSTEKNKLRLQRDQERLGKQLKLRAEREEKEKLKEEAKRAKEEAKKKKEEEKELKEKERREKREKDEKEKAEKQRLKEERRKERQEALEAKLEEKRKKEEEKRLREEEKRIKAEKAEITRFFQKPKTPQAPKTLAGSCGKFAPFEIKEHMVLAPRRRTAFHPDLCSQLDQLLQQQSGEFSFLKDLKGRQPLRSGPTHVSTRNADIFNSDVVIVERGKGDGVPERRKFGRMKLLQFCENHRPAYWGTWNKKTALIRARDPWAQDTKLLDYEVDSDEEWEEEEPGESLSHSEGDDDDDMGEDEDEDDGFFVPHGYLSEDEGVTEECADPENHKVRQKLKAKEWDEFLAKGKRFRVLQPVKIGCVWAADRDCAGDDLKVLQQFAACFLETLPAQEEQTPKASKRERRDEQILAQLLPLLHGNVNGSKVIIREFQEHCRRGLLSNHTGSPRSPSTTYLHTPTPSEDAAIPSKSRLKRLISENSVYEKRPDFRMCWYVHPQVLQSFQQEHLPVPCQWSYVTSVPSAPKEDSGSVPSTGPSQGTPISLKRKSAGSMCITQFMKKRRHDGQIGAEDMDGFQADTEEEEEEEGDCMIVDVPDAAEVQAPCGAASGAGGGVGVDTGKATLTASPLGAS
UniProt P20810: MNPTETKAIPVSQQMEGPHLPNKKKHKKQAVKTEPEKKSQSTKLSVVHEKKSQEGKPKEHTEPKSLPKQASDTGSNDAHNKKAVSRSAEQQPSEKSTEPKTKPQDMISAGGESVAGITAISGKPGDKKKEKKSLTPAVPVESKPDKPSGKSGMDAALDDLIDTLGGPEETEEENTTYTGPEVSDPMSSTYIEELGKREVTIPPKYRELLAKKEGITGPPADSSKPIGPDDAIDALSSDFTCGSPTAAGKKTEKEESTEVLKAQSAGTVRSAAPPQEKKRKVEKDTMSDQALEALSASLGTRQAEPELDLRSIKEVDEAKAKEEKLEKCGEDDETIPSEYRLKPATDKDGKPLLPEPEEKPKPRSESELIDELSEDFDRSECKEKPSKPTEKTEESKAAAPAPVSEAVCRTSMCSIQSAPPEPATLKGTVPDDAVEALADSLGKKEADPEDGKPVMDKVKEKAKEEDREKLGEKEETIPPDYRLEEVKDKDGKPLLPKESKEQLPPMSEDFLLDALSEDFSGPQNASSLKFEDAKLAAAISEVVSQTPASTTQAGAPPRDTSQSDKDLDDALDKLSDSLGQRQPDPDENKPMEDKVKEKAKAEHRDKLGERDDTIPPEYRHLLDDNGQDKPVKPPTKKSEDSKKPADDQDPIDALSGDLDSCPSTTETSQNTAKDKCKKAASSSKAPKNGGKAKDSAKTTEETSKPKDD
UniProt Q9Y259: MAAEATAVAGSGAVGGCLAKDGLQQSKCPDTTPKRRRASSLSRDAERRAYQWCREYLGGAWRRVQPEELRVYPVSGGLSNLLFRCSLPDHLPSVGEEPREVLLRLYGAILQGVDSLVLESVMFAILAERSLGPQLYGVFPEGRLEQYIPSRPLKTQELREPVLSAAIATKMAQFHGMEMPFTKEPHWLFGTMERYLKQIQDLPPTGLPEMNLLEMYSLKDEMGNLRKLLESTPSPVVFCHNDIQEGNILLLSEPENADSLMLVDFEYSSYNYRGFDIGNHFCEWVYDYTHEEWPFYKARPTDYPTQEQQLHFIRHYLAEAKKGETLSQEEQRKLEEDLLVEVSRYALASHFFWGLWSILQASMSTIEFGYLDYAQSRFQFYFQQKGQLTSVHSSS
UniProt Q96CT7: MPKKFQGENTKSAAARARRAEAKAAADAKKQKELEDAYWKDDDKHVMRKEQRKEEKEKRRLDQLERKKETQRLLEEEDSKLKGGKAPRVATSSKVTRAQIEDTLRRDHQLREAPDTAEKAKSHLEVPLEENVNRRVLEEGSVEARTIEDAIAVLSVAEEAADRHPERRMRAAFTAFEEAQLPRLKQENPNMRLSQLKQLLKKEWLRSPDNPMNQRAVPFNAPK
UniProt Q567U6, whole entry: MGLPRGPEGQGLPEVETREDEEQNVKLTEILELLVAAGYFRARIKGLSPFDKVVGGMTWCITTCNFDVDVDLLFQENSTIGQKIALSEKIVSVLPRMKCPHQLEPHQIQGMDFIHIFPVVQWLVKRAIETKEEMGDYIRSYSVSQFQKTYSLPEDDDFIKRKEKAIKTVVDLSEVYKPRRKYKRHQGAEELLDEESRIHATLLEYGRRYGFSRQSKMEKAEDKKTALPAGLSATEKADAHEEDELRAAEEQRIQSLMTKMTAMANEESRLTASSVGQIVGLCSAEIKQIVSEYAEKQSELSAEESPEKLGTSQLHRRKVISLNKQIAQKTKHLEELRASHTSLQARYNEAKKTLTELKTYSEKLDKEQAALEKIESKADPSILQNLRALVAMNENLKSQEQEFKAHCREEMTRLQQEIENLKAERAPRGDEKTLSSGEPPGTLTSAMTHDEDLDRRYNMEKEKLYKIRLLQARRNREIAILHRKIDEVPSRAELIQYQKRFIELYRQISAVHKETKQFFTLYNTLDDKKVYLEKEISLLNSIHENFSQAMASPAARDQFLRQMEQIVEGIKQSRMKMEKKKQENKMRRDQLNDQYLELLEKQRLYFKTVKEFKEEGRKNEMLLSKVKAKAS
UniProt Q96KP4: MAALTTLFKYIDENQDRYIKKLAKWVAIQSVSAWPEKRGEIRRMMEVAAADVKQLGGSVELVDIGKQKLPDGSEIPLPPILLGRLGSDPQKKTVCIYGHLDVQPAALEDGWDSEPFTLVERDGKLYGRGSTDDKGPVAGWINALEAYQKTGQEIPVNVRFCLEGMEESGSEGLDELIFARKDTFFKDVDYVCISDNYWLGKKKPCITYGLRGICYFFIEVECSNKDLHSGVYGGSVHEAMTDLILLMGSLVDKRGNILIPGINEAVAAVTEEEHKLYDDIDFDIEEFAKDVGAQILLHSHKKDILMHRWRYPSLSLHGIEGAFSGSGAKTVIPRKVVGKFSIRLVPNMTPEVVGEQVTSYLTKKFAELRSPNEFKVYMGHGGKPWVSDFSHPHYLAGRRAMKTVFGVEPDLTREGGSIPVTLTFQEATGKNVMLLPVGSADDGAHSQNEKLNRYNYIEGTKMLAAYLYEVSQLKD
UniProt O95639, whole entry: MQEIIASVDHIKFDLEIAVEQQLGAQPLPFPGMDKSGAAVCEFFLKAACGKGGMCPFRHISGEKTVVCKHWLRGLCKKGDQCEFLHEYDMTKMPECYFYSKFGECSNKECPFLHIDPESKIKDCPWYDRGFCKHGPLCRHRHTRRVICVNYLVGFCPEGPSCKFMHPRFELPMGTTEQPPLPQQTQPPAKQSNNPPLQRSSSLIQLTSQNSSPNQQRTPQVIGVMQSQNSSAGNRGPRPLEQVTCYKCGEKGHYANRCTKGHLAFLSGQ
UniProt Q9UKF6: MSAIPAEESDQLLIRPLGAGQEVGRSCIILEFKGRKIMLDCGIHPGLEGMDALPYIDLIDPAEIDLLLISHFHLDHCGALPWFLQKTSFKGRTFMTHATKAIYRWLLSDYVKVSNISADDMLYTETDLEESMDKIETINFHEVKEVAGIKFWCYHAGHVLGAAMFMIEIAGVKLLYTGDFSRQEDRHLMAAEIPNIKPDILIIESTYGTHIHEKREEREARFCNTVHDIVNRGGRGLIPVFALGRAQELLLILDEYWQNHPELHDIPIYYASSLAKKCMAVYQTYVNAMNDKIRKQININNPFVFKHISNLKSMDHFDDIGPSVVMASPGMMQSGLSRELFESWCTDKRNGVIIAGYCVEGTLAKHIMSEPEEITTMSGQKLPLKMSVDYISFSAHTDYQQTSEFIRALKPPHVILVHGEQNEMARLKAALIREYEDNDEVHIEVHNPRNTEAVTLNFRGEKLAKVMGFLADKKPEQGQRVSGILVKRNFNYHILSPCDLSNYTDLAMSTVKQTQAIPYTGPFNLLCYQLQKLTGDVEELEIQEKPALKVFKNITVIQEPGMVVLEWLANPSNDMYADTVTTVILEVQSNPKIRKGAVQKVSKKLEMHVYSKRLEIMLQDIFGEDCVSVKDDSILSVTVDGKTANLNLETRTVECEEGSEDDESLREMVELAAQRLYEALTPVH
UniProt O76031, whole entry: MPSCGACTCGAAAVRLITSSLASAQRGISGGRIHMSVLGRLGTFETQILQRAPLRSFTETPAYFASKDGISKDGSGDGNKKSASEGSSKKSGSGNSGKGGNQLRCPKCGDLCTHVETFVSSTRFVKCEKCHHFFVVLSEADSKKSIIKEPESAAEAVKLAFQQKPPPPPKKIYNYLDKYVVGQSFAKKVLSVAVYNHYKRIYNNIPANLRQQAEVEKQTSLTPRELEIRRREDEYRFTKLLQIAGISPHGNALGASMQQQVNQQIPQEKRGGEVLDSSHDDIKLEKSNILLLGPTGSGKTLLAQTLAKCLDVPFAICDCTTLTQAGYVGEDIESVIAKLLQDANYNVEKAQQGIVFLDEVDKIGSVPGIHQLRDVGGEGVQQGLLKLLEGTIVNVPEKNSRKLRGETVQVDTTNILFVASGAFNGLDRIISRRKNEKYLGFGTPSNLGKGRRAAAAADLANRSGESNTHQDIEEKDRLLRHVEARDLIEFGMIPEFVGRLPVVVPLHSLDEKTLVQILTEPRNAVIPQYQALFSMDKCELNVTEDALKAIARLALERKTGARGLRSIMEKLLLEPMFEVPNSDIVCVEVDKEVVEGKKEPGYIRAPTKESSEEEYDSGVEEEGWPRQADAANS
UniProt Q2KHT3: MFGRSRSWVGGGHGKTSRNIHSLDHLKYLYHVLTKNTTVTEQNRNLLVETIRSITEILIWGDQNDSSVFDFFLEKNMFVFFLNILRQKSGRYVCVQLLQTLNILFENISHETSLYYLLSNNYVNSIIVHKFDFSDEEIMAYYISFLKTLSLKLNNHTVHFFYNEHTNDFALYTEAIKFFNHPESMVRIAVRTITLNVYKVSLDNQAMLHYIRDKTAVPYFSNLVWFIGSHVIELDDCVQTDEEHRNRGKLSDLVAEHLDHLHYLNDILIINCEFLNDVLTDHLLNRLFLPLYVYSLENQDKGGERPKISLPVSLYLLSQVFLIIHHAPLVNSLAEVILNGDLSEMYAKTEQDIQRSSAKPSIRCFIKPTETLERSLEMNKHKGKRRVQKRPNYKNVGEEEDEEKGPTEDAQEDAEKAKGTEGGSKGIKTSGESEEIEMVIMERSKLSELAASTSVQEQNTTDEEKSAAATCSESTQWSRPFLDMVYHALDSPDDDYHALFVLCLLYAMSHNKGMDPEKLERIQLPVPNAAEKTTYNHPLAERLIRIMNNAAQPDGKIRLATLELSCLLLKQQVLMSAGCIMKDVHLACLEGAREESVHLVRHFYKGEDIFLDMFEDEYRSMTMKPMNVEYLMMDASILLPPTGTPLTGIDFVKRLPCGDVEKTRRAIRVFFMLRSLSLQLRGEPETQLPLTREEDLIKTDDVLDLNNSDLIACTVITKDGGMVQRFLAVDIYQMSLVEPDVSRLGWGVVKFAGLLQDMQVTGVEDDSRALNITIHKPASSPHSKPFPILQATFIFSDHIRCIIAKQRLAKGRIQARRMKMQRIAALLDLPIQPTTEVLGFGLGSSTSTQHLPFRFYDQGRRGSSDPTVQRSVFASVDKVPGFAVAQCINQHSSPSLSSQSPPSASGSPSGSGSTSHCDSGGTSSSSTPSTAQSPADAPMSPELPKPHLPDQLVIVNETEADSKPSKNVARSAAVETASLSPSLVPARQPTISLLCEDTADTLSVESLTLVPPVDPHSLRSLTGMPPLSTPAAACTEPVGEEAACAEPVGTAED
UniProt Q9BW85: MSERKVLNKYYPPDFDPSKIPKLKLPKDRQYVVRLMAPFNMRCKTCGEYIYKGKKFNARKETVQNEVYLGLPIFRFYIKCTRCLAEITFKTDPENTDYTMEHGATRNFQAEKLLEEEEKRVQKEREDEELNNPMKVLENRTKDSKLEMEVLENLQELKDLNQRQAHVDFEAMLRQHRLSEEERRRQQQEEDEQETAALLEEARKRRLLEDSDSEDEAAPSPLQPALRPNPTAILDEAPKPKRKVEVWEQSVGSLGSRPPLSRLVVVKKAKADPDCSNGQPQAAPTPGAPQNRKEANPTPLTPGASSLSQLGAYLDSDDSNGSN

compound: Nc1nc2c(ncn2[C@@H]2O[C@H](COP(=O)(O)OP(=O)(O)OP(=O)(O)O)[C@@H](O)[C@H]2O)c(=O)[nH]1; experiment: dose-dependent thermal stabilisation call (2D-TPP, DLPTP, 10% FDR) (binary (1 = stabilised)); higher = stabilised by the compound; conditions: system: Jurkat gel-filtered lysate; concentration range 1-500 µM
Experimental: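 2D thermal proteome profiling in gel-filtered Jurkat E6.1 lysate (2 mg/ml) treated with NaGTP (0, 1, 10, 100, 500 uM) for 10 min at room temperature, then heated 3 min at one of 12 temperatures (42-63.9 C). Soluble protein was quantified by TMT10 MS. The value is the DLPTP call of the paper: dose-dependent thermal stabilisation over all temperatures at 10% FDR (F-test of a dose-response against a flat model); one experiment, one call per tested protein.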

Row | Target | dose-dependent thermal stabilisation call
1 | CHMP5 (UniProt Q9NZZ3) | inactive: 0
2 | CDC25C (UniProt P30307) | inactive: 0
3 | CEBPG (UniProt P53567) | inactive: 0
4 | COPRS (UniProt Q9NQ92) | inactive: 0
5 | CBR4 (UniProt Q8N4T8) | inactive: 0
6 | CEP192 (UniProt Q8TEP8) | inactive: 0
7 | CHN1 (UniProt P15882) | inactive: 0
8 | CDT1 (UniProt Q9H211) | inactive: 0
9 | CHAF1A (UniProt Q13111) | active: 1
10 | CAST (UniProt P20810) | inactive: 0
11 | CCNA2 (UniProt P20248) | inactive: 0
12 | CCT8 (UniProt P50990) | inactive: 0
13 | COX5A (UniProt P20674) | inactive: 0
14 | CHMP1B (UniProt Q7LBR1) | inactive: 0
15 | CDV3 (UniProt Q9UKY7) | inactive: 0
16 | CGN (UniProt Q9P2M7) | inactive: 0
17 | CORO1A (UniProt P31146) | inactive: 0
18 | CHKB (UniProt Q9Y259) | inactive: 0
19 | CCDC124 (UniProt Q96CT7) | inactive: 0
20 | CASP6 (UniProt P55212) | inactive: 0

Row | Target | dose-dependent thermal stabilisation call
21 | CHML (UniProt P26374) | inactive: 0
22 | CDC34 (UniProt P49427) | inactive: 0
23 | CCDC92 (UniProt Q53HC0) | active: 1
24 | CCDC93 (UniProt Q567U6) | active: 1
25 | CNDP2 (UniProt Q96KP4) | inactive: 0
26 | CPSF4 (UniProt O95639) | inactive: 0
27 | CPSF3 (UniProt Q9UKF6) | inactive: 0
28 | CLPX (UniProt O76031) | active: 1
29 | CHMP2A (UniProt O43633) | inactive: 0
30 | CNOT2 (UniProt Q9NZN8) | inactive: 0
31 | CCZ1 (UniProt P86791) | inactive: 0
32 | CLEC16A (UniProt Q2KHT3) | inactive: 0
33 | CLIC1 (UniProt O00299) | inactive: 0
34 | CLUH (UniProt O75153) | inactive: 0
35 | CIZ1 (UniProt Q9ULV3) | inactive: 0
36 | CLYBL (UniProt Q8N0X4) | inactive: 0
37 | CHD8 (UniProt Q9HCK8) | inactive: 0
38 | CNST (UniProt Q6PJW8) | inactive: 0
39 | CCDC94 (UniProt Q9BW85) | inactive: 0
40 | CLASP1 (UniProt Q7Z460) | inactive: 0

A different layout for part of the listing above.
Row	Target	dose-dependent thermal stabilisation call
35	CIZ1 (UniProt Q9ULV3)	inactive: 0
36	CLYBL (UniProt Q8N0X4)	inactive: 0
37	CHD8 (UniProt Q9HCK8)	inactive: 0
